Reference: patent publication US20220071956A1, “COMPOSITION FOR SUPRESSING SECRETION OF EXTRACELLULAR VESICLES” (NISSAN CHEMICAL CORPORATION, priority 2018, published 2022)
Some entries share one result that the patent states for a list of compounds.

Assays:
[1] = tested on: U-87 MG cells, HEK293T cells, Jurkat cells, THP-1 cells, HCT116 cells, SW480 cells and SW620 cells; test: Evaluation of suppression of secretion of extracellular vesicles (Tim4-CD63/CD9/CD81 ELISA, NanoSIGHT; Test Examples 1, 3 and 4); format: cell-based, human; details: various cells, compound 0 to 20 μM, cultured 24 hours, culture supernatant
[2] = tested on: U-87 MG cells, HEK293T cells, Jurkat cells, THP-1 cells, HCT116 cells, SW480 cells and SW620 cells; details: compound 0 to 40 μM, 24 hours; for cytotoxicity: various cells, amount of LDH in the culture supernatant

| SMILES | secreted amount of CD9, CD63 and/or CD81-positive extracellular vesicles [1] | amount of LDH in the culture supernatant [2] | cytotoxicity [2] |
| --- | --- | --- | --- |
| C[N+](C)(C)c1ccc(-c2c3nc(c(-c4ccc([N+](C)(C)C)cc4)c4ccc([nH]4)c(-c4ccc([N+](C)(C)C)cc4)c4nc(c(-c5ccc([N+](C)(C)C)cc5)c5ccc2[nH]5)C=C4)C=C3)cc1 [Example 8] | could reduce the secreted amount | no significant increase | low cytotoxicity |
| O=C1C(=O)N(Cc2ccc(Cl)c(Cl)c2)c2ccccc21 [Example 9] | could reduce the secreted amount | no significant increase | low cytotoxicity |
| O=C1C(=O)N(Cc2ccc(Cl)c(Cl)c2)c2ccc(Cl)cc21 [Example 10] | could reduce the secreted amount | no significant increase | low cytotoxicity |
| O=C1C(=O)N(Cc2ccc(Br)cc2)c2ccccc21 [Example 12] | could reduce the secreted amount | no significant increase | low cytotoxicity |
| O=C1C(=O)N(Cc2c(Cl)cccc2Cl)c2ccccc21 [Example 13] | could reduce the secreted amount | no significant increase | low cytotoxicity |
| O=C1C(=O)N(Cc2ccc(F)cc2)c2ccccc21 [Example 14] | could reduce the secreted amount | no significant increase | low cytotoxicity |
| O=C1C(=O)N(Cc2cccc(Cl)c2)c2ccccc21 [Example 15] | could reduce the secreted amount | no significant increase | low cytotoxicity |
